By UniProt entry, the sequences of proteins in these tests, tags left out. Where a name states a change or a piece, a line headed by the entry shows the natural chain unless it says otherwise. Chains listed by the source or under a name are the forms on record and can include a tag or linker. Residues count along the entry.
SNAP/FLAG-hGLP1R^WT (P43220, residues 24-463): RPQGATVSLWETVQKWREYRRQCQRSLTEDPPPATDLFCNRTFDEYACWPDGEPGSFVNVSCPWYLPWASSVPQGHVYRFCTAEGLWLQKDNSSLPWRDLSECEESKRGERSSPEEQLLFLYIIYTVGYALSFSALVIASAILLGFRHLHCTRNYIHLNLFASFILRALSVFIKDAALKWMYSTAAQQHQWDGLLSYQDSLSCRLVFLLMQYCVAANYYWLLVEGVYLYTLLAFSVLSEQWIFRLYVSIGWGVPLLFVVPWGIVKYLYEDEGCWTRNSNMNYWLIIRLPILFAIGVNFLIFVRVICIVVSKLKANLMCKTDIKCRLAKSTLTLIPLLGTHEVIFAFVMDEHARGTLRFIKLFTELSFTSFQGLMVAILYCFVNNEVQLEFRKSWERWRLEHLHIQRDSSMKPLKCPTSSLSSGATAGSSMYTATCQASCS
SNAP/FLAG-hGLP1R^A316T (P43220, form named): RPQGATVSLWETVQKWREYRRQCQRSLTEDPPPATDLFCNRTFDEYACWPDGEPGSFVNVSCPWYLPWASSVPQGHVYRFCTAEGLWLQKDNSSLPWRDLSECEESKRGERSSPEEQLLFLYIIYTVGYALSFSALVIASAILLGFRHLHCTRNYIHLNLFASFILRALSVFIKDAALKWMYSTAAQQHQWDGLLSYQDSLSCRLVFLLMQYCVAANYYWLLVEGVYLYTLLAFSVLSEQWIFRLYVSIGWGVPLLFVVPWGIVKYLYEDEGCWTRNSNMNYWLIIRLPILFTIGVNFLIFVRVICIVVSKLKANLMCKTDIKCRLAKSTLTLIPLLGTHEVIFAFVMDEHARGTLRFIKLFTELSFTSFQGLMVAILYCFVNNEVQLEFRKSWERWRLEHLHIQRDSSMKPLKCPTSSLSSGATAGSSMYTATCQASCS
UniProt Q9Z269: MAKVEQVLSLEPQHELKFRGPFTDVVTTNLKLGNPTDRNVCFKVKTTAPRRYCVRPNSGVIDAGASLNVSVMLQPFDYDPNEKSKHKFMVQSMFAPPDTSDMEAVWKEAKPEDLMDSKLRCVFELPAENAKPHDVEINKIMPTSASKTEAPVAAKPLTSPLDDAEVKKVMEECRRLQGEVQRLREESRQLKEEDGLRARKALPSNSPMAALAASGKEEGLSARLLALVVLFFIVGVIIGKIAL
UniProt P0C6C0: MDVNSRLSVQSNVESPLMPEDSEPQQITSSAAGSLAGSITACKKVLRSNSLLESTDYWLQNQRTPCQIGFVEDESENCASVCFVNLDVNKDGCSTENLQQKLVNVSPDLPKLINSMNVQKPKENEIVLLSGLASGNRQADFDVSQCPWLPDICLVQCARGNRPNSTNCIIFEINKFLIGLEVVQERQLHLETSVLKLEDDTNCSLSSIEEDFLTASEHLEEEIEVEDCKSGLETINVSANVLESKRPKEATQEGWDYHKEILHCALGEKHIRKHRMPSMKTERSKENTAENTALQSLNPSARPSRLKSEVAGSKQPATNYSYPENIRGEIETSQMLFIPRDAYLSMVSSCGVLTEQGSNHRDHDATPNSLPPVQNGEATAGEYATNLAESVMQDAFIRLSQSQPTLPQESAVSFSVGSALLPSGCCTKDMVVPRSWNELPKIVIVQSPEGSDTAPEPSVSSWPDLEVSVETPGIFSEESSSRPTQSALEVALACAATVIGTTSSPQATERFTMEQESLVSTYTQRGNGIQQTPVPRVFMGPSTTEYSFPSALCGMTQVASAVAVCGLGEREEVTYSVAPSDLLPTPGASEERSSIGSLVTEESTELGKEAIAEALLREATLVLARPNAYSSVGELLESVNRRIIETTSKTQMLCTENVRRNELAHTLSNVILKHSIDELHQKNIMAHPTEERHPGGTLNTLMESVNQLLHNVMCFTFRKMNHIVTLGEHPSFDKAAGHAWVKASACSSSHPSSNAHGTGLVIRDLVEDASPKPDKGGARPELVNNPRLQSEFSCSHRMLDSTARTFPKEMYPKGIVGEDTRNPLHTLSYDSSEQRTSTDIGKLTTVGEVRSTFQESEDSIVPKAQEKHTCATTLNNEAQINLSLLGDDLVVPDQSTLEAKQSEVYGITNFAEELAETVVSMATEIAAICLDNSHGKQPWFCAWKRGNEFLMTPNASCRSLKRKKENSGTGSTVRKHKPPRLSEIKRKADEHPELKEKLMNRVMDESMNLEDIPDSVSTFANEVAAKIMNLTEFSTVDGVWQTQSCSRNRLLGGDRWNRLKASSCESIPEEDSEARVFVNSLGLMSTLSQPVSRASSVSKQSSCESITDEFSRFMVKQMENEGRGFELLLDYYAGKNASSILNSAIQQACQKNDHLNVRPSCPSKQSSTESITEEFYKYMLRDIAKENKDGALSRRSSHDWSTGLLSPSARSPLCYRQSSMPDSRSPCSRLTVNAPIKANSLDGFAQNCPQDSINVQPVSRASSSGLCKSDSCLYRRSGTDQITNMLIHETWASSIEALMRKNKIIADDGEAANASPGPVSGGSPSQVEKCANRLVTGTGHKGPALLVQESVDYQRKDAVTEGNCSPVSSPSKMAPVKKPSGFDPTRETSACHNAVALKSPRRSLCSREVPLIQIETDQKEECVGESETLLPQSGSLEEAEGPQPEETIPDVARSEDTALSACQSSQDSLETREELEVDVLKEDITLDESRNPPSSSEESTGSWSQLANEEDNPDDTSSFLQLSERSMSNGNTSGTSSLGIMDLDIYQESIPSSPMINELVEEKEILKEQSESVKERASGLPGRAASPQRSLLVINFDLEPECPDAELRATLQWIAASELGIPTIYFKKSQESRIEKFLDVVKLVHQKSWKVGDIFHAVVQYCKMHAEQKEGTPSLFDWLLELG

According to PMC13267291, “In vivo functional profiling and structural characterization of the human GLP1R A316T variant” (Science Advances, 2026):

Columns and labels:
[1] = target: SNAP/FLAG-hGLP1R^WT (human) (UniProt P43220); assay: affinity purification with mass spectrometry; interactome of SNAP/FLAG-hGLP1R^WT or ^A316T immunoprecipitated from INS-1 832/3 Glp1r−/− cells, vehicle versus GLP-1 or exendin-4 stimulation; normalized to isolated receptor amounts per immunoprecipitate
[2] = target: SNAP/FLAG-hGLP1R^A316T (human) (UniProt P43220); assay: as above

Row | binding [1] | binding [2] | Substance
1 | binds | binds | VAPB (from UniProt Q9Z269 1-243)
2 | binds | binds | SPHKAP (from UniProt P0C6C0 1-1683)

No constants are given. Whether binding was seen depends on the method and setting. In cells and extracts the contact can be indirect. A yes stands for co-enrichment or nearness to the bait. Other partners may have been found.
